Experimental data published in patent US20120296090A1, “Drug Repositioning Methods For Targeting Breast Tumor Initiating Cells” (The Methodist Hospital Research Institute, priority 2011, published 2012).
At least one structure is not confirmed: it was looked up by name or label, or the drawing left a doubt.

Tests used:
[1] = test system: breast TICs; experiment: inhibition of breast TICs in vitro and in vivo (FIG. 3, human breast cancer xenograft mammosphere formation efficiency); assay type: cell-based
[2] = test system: human breast cancer TICs; experiment: mammosphere formation efficiency assay on triple-negative cancer cell lines; assay type: cell-based; conditions: at least two triple-negative cancer cell lines
Excerpt: (§1) Thus, the proposed drug-repositioning platform consists of CSB model, bioinformatics software, and drug information databases. Among the twenty-one drug candidates identified in this study, three drugs, i.e., sunitinib (Sutent®, Pfizer Oncology, New York, N.Y., USA), dasatinib (Sprycel®, Bristol-Myers Squibb, Princeton, N.J., USA) and chloroquine (Aralen®, sanofi-aventis, US, LLC, Bridgewater, N.J., USA) were further analyzed for their in vitro and in vivo effects on human breast cancer TICs, and in murine xenograft models. […] As a result of this finding, dasatinib is now currently in Phase II clinical trials for advanced breast cancer to assess the efficacy of this drug for inhibiting TICs.

[3] = test system: human breast cancer TICs; experiment: dilute transplantation assay in murine xenograft models; assay type: in vivo
Excerpt: as §1

Compound	inhibiting breast TICs [1]	anti-TICs effects (mammosphere formation efficiency assay) [2]	anti-cancer effects in animal models (dilute transplantation assay) [3]
Cc1nc(Nc2ncc(C(=O)Nc3c(C)cccc3Cl)s2)cc(N2CCN(CCO)CC2)n1 [dasatinib]	effective in inhibiting breast TICs	anti-TICs effects	anti-cancer effects
CCN(CC)CCNC(=O)c1c(C)[nH]c(/C=C2\C(=O)Nc3ccc(F)cc32)c1C [sunitinib]	effective in inhibiting breast TICs	anti-TICs effects	anti-cancer effects
